Data as given in paper doi:10.1101/2022.01.12.476021.
No constants are given. Whether binding was seen depends on the method and setting. For part of these data: In cells and extracts the contact can be indirect. Some results given as binding are weak or reduced against the parent protein; the word gives no strength.

Amino acid sequences for entries named in this document (tags omitted).
UniProt P0AG99, whole entry: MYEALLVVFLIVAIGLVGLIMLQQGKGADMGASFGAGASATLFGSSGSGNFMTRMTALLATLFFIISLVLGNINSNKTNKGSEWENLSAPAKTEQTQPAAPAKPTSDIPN
UniProt P0AGA2, whole entry: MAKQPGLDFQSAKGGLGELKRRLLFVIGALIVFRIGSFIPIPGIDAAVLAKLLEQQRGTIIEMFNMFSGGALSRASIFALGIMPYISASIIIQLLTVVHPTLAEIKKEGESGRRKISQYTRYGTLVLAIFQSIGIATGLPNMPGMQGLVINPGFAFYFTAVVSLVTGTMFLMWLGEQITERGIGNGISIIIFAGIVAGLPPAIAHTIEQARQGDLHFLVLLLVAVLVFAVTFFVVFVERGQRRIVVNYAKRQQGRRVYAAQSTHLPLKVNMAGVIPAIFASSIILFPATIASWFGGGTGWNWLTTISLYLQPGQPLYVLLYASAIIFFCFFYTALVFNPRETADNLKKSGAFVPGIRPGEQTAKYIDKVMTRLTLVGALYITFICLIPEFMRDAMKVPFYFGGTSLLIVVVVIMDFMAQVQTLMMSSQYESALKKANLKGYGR

Key:
[1] = target: SecG (E. coli (endogenous in BL21 (DE3))) (UniProt P0AG99); test: SEC
[2] = target: SecY (E. coli (endogenous in BL21 (DE3))) (UniProt P0AGA2); test: SEC
[3] = target: SecG (E. coli (endogenous in BL21 (DE3))) (UniProt P0AG99); test: co-IP

Measured: binding

B1: SecD (protein, UniProt P0AG90 1-615)
chain: MLNRYPLWKYVMLIVVIVIGLLYALPNLFGEDPAVQITGARGVAASEQTLIQVQKTLQEEKITAKSVALEEGAILARFDSTDTQLRAREALMGVMGDKYVVALNLAPATPRWLAAIHAEPMKLGLDLRGGVHFLMEVDMDTALGKLQEQNIDSLRSDLREKGIPYTTVRKENNYGLSITFRDAKARDEAIAYLSKRHPDLVISSQGSNQLRAVMSDARLSEAREYAVQQNINILRNRVNQLGVAEPVVQRQGADRIVVELPGIQDTARAKEILGATATLEFRLVNTNVDQAAAASGRVPGDSEVKQTREGQPVVLYKRVILTGDHITDSTSSQDEYNQPQVNISLDSAGGNIMSNFTKDNIGKPMATLFVEYKDSGKKDANGRAVLVKQEEVINIANIQSRLGNSFRITGINNPNEARQLSLLLRAGALIAPIQIVEERTIGPTLGMQNIEQGLEACLAGLLVSILFMIIFYKKFGLIATSALIANLILIVGIMSLLPGATLSMPGIAGIVLTLAVAVDANVLINERIKEELSNGRTVQQAIDEGYRGAFSSIFDANITTLIKVIILYAVGTGAIKGFAITTGIGVATSMFTAIVGTRAIVNLLYGGKRVKKLSI
binds: all assays above
